Some of these results come from one statement about several compounds together.
These molecules were tested on HuVECs (assay: Tubulin staining assay, 20 nM, 30 min (Example 11)).
Format: cell-based, human
With CC(C)(C)c1ocnc1/C=c1\[nH]c(=O)/c(=C/c2c(F)ccc(F)c2F)[nH]c1=O [Compound 2506, tBu-oxadelta-PLH-2,3,6-trifluoro] the “time to induce tubulin depolymerization in HuVECs” value (from here on “time”) was at most 30 min. With CC(C)(C)c1ocnc1/C=c1\[nH]c(=O)/c(=C/c2cccc(F)c2)[nH]c1=O [Compound 2463, tBu-Oxadelta-PLH-m-F] the “time” value was at most 30 min. For CC(C)(C)c1ocnc1/C=c1\[nH]c(=O)/c(=C/c2cc(F)cc(F)c2F)[nH]c1=O [Compound 2503, tBu-oxadelta-PLH-2,3,5-trifluoro], the “time” value was at most 30 min. CC(C)(C)c1ocnc1/C=c1\[nH]c(=O)/c(=C/c2c(F)c(F)cc(F)c2F)[nH]c1=O [Compound 2504, tBu-oxadelta-PLH-2,3,5,6-tetrafluoro] was tested, and the “time” value was at most 30 min. With CC(C)(C)c1ocnc1/C=c1\[nH]c(=O)/c(=C/c2ccccc2)[nH]c1=O [Compound 2421, tBu-delta-PLH-oxazole] the “time” value was at most 30 min.
